Consider one sequence from US7662584, “Increased production of secreted proteins by recombinant eukaryotic cells” (Danisco US Inc.).

Construct, isoform or probe ends are uncertain for at least one entry. No signal at the amounts used counts as a negative.

The series concerns the target malE (maltose-binding protein) (Escherichia coli) (UniProt P0AEX9). The series is described as follows: EMSA. Particulars: malE alone control, 2 ug; probe assigned from pdi1 promoter UPR element area; purified recombinant protein; protein details: pMAL system, New England Biolabs; label: 32P-dCTP Klenow fill-in. Background: A gel shift assay detects complexes by their altered migration in electrophoresis.

As for “CGGCTGAACCAGCGCGGCAGCCAGATGTGGCCAAAGGG (double strand) [pdiUPREI+II]”, the binding result is given as “no binding”.
